Experimental data as given in article PMC11048240.
These are yes or no findings as the source states them, for the method shown. Binding seen in cells or lysates may run through a third protein. Some entries that bind do so weakly or less than the wild type.

The chains behind the UniProt entries cited, without tags or fusion partners.
UniProt Q91XJ1: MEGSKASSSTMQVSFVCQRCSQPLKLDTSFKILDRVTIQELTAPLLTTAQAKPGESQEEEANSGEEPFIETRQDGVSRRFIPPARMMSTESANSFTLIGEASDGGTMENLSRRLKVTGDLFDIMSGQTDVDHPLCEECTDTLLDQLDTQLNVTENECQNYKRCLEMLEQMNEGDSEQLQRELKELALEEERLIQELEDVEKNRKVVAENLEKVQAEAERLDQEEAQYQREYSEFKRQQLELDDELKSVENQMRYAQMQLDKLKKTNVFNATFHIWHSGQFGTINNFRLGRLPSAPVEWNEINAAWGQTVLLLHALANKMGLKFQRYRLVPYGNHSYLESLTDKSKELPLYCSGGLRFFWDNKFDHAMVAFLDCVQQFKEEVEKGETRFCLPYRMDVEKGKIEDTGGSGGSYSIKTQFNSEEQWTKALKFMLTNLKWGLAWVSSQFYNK
UniProt P49950: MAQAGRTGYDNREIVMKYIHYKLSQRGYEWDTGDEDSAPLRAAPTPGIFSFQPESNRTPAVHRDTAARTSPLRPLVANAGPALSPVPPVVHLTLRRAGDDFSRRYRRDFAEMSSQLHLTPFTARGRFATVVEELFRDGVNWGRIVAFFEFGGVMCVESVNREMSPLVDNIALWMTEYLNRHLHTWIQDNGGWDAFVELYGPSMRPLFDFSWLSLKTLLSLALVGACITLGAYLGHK

Molecular target: Beclin1 (rat (endogenous in rat brain tissue)) (UniProt Q91XJ1)
Experiment: co-IP; rat brain tissue homogenate supernatant; Protein A/G agarose with antibodies against Beclin1 and Bcl-2, 4 °C overnight, five washes with 1x PBS, immunoblot; groups Sham, Model, rt-PA

binding: binds
Substance: B cell leukemia/lymphoma 2 (Bcl-2) (from UniProt P49950 1-236)
